Source: the supplement of paper PMC10849652
The list shows a part of the results.

Amino acid sequences for entries named in this document (tags omitted). A change or cut given only in a name is not applied to a line headed by its entry.
UniProt Q9Y343: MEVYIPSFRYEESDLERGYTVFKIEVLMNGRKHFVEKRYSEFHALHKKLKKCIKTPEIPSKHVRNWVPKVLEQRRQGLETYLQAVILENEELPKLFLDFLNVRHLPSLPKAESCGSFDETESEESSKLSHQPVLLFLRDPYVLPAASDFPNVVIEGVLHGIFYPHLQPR
UniProt B2RUZ4: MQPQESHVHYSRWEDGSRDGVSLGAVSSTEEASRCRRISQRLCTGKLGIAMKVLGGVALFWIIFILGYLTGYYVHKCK
UniProt Q9NXE4: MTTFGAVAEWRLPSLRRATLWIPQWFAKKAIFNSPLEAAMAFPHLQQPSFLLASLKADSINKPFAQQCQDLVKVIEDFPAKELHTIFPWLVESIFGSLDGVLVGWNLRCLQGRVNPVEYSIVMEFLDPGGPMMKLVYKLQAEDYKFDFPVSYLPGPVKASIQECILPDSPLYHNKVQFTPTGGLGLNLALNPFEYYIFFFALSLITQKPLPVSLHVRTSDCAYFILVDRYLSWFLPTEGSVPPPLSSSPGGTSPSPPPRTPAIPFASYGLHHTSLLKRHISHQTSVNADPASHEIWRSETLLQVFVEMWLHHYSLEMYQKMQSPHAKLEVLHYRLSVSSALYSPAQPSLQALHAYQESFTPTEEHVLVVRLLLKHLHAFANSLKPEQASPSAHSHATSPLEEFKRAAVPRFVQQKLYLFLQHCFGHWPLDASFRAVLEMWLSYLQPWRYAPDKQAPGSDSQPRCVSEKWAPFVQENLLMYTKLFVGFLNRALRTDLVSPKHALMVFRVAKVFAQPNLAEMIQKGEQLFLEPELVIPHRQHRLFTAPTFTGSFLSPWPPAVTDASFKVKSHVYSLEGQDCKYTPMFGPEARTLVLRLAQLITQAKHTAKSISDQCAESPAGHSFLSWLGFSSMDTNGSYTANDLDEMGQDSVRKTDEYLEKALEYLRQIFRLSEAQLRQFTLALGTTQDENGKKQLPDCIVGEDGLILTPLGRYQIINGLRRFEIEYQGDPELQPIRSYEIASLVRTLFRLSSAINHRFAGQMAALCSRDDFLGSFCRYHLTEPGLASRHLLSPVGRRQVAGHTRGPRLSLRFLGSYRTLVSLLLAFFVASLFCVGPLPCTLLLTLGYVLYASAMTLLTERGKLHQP
UniProt Q9H3E2: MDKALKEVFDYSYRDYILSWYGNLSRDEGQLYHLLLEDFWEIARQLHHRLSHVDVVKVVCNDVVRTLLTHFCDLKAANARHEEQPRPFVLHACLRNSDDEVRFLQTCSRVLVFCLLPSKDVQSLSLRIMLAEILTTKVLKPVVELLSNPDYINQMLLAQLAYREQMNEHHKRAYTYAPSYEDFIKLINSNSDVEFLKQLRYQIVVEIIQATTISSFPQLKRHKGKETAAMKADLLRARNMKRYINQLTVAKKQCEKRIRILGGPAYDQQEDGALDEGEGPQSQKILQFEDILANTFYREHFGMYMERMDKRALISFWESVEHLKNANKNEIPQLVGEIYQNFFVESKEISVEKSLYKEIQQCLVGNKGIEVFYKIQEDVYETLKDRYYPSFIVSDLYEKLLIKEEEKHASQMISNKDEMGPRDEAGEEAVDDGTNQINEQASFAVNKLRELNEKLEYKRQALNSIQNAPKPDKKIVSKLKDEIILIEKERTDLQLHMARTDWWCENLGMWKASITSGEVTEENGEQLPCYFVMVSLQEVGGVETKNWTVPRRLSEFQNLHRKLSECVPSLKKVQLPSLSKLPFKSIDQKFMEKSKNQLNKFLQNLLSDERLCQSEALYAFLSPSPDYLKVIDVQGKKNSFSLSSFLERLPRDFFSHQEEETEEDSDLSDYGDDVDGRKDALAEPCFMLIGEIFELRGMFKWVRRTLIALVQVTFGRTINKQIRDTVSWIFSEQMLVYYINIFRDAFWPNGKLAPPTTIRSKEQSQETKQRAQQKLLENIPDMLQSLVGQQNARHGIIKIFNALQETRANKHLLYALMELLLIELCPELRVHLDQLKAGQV
UniProt Q9H4I9: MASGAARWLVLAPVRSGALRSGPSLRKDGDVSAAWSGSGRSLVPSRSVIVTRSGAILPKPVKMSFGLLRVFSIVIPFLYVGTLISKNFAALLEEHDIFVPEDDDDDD
UniProt Q8TEQ0: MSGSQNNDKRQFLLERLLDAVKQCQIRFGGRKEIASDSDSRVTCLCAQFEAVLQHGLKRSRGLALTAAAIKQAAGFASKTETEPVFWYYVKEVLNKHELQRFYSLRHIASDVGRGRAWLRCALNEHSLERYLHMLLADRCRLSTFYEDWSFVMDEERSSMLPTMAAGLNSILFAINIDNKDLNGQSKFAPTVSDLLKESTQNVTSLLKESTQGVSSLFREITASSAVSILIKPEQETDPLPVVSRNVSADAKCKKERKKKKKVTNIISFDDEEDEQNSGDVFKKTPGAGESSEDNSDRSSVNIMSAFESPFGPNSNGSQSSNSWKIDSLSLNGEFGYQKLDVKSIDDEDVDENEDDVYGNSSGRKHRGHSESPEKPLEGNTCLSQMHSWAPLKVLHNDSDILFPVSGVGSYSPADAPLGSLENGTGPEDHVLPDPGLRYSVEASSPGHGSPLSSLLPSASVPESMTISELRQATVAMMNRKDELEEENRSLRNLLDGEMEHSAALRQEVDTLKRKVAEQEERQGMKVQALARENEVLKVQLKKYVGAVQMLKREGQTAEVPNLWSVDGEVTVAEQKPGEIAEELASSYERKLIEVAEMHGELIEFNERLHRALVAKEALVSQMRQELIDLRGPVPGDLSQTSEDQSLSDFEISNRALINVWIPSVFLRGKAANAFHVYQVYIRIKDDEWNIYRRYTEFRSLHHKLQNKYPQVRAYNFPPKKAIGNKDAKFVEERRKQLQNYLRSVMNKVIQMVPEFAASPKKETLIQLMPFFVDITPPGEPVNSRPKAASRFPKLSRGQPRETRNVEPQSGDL
UniProt P02814: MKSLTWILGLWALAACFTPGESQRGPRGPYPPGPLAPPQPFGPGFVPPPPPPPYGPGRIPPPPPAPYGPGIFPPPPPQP
UniProt O60271: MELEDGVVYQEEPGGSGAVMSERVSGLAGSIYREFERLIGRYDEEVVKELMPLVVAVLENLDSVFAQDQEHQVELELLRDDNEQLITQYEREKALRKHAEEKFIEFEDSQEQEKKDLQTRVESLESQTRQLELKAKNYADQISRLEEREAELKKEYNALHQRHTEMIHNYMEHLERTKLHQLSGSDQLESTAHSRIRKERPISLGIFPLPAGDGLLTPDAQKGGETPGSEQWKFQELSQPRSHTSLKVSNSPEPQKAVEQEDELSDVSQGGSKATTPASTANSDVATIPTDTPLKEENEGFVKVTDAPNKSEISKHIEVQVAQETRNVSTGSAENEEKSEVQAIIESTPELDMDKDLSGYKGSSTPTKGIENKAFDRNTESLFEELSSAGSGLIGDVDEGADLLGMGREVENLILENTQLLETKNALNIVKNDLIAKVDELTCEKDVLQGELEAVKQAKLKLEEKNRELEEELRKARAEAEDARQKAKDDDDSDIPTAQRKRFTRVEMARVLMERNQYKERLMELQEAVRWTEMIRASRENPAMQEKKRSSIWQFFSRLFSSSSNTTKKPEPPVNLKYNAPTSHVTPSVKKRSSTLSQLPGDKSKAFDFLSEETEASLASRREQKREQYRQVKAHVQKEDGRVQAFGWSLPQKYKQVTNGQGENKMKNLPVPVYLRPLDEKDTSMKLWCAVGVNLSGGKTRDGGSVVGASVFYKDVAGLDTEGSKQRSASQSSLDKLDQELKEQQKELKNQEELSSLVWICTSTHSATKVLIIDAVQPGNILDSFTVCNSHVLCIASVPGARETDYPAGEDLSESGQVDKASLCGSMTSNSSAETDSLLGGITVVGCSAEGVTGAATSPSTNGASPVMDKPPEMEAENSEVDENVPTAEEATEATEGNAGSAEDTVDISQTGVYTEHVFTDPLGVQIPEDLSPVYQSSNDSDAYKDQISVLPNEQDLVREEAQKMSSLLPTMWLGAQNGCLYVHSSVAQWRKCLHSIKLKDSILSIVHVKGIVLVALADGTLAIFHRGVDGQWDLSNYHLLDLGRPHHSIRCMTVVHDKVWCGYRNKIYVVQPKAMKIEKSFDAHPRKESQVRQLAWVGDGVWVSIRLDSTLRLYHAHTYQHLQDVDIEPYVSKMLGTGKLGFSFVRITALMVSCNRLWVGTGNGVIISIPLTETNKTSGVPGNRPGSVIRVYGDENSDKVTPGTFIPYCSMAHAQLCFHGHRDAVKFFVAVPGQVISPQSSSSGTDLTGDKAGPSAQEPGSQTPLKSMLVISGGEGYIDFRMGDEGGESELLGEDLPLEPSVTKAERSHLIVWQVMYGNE
UniProt Q02447: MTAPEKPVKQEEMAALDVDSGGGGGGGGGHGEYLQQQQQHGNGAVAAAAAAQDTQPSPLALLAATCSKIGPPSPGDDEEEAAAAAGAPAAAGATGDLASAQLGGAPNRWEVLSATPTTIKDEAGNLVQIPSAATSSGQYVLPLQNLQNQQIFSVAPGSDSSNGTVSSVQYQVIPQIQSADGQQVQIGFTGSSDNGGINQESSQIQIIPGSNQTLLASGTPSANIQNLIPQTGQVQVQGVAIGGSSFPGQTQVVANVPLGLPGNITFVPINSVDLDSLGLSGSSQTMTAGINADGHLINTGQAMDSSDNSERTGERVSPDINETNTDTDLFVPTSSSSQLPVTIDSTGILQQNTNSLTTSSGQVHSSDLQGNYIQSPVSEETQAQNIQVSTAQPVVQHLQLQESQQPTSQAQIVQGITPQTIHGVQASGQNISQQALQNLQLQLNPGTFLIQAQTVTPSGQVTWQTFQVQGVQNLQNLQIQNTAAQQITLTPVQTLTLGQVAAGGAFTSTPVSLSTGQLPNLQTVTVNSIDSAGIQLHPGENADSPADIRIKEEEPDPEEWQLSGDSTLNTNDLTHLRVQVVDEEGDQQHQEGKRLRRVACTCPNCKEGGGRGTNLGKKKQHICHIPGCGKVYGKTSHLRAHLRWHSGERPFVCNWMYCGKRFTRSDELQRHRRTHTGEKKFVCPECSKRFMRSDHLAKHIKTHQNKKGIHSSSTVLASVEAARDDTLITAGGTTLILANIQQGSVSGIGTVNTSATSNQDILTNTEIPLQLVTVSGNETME
UniProt Q92543: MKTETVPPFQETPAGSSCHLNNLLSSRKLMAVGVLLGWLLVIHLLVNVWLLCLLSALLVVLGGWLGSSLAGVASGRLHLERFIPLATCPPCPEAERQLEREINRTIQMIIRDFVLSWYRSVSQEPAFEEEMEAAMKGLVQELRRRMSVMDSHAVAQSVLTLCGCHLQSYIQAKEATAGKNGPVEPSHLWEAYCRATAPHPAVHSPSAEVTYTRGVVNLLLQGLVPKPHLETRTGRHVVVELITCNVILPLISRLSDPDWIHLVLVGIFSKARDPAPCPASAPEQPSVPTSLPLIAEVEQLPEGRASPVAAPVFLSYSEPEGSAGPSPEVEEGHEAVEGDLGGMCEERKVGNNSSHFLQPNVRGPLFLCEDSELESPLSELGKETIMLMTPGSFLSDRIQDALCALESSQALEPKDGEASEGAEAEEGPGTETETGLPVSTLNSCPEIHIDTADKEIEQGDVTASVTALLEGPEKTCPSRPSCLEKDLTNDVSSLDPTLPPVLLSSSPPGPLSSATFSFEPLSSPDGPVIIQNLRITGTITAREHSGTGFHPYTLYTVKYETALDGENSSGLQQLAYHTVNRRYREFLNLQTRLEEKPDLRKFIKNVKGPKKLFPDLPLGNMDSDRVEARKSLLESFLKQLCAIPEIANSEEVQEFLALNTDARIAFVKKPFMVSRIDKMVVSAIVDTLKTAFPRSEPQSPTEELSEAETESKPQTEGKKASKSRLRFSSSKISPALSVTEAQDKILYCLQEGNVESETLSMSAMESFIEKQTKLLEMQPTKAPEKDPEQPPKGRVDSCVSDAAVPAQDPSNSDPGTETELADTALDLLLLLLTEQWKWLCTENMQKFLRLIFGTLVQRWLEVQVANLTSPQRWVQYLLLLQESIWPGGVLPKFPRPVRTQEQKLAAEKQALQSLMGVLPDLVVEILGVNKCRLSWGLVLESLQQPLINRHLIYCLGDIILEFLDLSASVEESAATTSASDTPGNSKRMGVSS
UniProt Q92484: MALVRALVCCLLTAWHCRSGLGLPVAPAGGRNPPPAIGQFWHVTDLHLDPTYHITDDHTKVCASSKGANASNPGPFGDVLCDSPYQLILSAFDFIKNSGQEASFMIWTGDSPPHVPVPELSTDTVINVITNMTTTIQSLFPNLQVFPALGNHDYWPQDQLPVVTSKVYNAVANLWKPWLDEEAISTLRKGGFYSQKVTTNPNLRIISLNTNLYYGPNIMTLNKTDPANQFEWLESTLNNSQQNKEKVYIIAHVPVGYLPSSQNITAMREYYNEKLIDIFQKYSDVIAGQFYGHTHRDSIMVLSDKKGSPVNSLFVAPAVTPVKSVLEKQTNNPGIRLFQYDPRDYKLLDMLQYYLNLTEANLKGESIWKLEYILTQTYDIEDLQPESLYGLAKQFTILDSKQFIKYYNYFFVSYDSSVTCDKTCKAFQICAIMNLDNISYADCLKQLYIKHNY
UniProt P58511: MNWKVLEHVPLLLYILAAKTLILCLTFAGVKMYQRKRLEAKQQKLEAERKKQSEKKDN

What follows are targets tested with C1=CC=C(C=C1)C2=NC(=C(N2)C3=CC=NC=C3)C4=CC(=C(C=C4)Cl)O (assay: log2 fold change, soluble protein after heating vs DMSO (PISA); higher = thermal stabilisation; K562 lysate, 10 uM; active = over 0.2 and 3.5 SD of the protein, either way, in both replicates (recomputed)).
In short: (§1)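 K562 pellets were dounce-homogenised in PBS pH 7.4 containing 1 mM MgCl2, and the crude extract, at 1 mg/mL protein, was exposed to 10 μM compound for 30 min. Aliquots were heated for 3 min across 48°C-58°C, pooled, brought to 0.5% NP-40 at 4°C and spun at 21,000xg for 90 min, with the supernatant taken as soluble protein. TMTpro 16plex LC-MS/MS with equalised channel sums quantified that protein. Values are log-two fold changes in thermal stability relative to solvent controls, taken from duplicates.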

log2 fold change, inactive:
SNX10 (UniProt Q9Y5X0) 0.102
SNX24 (UniProt Q9Y343) -0.016
SMIM1 (UniProt B2RUZ4) 0.063
SNAP47 (UniProt Q5SQN1) 0.027
SNX13 (UniProt Q9Y5W8) 0.017
SMIM4 (UniProt Q8WVI0) -0.066
SPAG1 (UniProt Q07617) -0.034
SMARCA4 isoform 4 (UniProt P51532) 0.127
SMPD1 (UniProt P17405) -0.021
SNX33 (UniProt Q8WV41) 0.086
SPA17 (UniProt Q15506) -0.018
SMYD4 (UniProt Q8IYR2) -0.022
SMPD4 isoform 4 (UniProt Q9NXE4) -0.252
SNX25 (UniProt Q9H3E2) -0.048
SMDT1 (UniProt Q9H4I9) 0.105
SNAPC2 (UniProt Q13487) 0.087
SMPDL3B (UniProt Q92485) 0.036
SMIM19 (UniProt Q96E16) 0.103
SNX29 (UniProt Q8TEQ0) -0.051
SNRNP25 (UniProt Q9BV90) 0.078
SMARCC2 isoform 3 (UniProt Q8TAQ2) 0.006
SMR3B (UniProt P02814) -0.071
SMPD2 (UniProt O60906) -0.112
SPAG9 isoform 4 (UniProt O60271) 0.058
SMIM26, A0A096LP01 0.214
SON isoform 6 (UniProt P18583) -0.075
SNX30 (UniProt Q5VWJ9) 0.05
SP3 (UniProt Q02447) -0.019
SNX19 (UniProt Q92543) 0.021

These targets were tested with C1=CC=C2C(=C1)C3=NNC4=CC=CC(=C43)C2=O in the same assay as above.
In short: as §1

log2 fold change, inactive:
SNAPC4 (UniProt Q5SXM2) -0.069
SOD3 (UniProt P08294) 0.014
SPAG1 (UniProt Q07617) -0.063
SPA17 (UniProt Q15506) -0.106
SMPD4 isoform 4 (UniProt Q9NXE4) -0.158
SMPDL3B (UniProt Q92485) 0.127
SNAPC5 (UniProt O75971) -0.081
SMPDL3A (UniProt Q92484) 0.121
SPAG9 isoform 4 (UniProt O60271) 0.008
SOX12 (UniProt O15370) 0.207
SOX11 (UniProt P35716) -0.064
SMIM11A (UniProt P58511) 0.158

Each target was assayed with C1CCN(C1)C(=O)NC2=CC=CC(=C2)NC3=NC=C(C(=N3)NCCC4=CN=CN4)Br in the same assay as above.
In short: as §1

log2 fold change, inactive:
SNX24 (UniProt Q9Y343) 0.069
SP2 (UniProt Q02086) -0.188
SMIM1 (UniProt B2RUZ4) 0.086
SNAP47 (UniProt Q5SQN1) 0.019
SNAPC4 (UniProt Q5SXM2) -0.074
SNAPC3 (UniProt Q92966) 0.104
SOD3 (UniProt P08294) 0.161
SMARCA4 isoform 4 (UniProt P51532) 0.112
SPA17 (UniProt Q15506) -0.076
SMPD4 isoform 4 (UniProt Q9NXE4) -0.014
SNX25 (UniProt Q9H3E2) -0.117
SMPDL3B (UniProt Q92485) 0.444
SNX29 (UniProt Q8TEQ0) 0.079
SMPDL3A (UniProt Q92484) 0.098
SMR3B (UniProt P02814) -0.139
SMPD2 (UniProt O60906) -0.024
SPAG9 isoform 4 (UniProt O60271) 0.047
SMIM11A (UniProt P58511) 0.133
SP3 (UniProt Q02447) -0.046
SNX19 (UniProt Q92543) 0.043

What follows are targets tested with C1CN(CCC1(CC2=CC=C(C=C2)Cl)N)C3=NC=NC4=C3C=CN4 in the same assay as above.
In short: as §1

log2 fold change, inactive:
SNX24 (UniProt Q9Y343) 0.001
SP2 (UniProt Q02086) -0.028
SMIM1 (UniProt B2RUZ4) -0.016
SNAP47 (UniProt Q5SQN1) -0.142
SNAPC4 (UniProt Q5SXM2) -0.053
SNAPC3 (UniProt Q92966) 0.002
SOD3 (UniProt P08294) 0.018
SMARCA4 isoform 4 (UniProt P51532) -0.076
SPA17 (UniProt Q15506) -0.029
SMPD4 isoform 4 (UniProt Q9NXE4) 0.089
SNX25 (UniProt Q9H3E2) -0.002
SMPDL3B (UniProt Q92485) 0.176
SNX29 (UniProt Q8TEQ0) 0.038
SMPDL3A (UniProt Q92484) 0.144
SMR3B (UniProt P02814) -0.138
SMPD2 (UniProt O60906) 0.022
SPAG9 isoform 4 (UniProt O60271) 0.115
SMIM11A (UniProt P58511) 0.002
SP3 (UniProt Q02447) -0.037
SNX19 (UniProt Q92543) 0.087
